Experimental data as given in publication PMC13011034.
These are yes or no findings as the source states them, for the method shown. Binding seen in cells or lysates may run through a third protein. Some entries that bind do so weakly or less than the wild type. Where a sequence is shown, tags or fusion partners need not be part of it.

Chains of the proteins cited; added tags and fusions are not shown.
UniProt Q14258: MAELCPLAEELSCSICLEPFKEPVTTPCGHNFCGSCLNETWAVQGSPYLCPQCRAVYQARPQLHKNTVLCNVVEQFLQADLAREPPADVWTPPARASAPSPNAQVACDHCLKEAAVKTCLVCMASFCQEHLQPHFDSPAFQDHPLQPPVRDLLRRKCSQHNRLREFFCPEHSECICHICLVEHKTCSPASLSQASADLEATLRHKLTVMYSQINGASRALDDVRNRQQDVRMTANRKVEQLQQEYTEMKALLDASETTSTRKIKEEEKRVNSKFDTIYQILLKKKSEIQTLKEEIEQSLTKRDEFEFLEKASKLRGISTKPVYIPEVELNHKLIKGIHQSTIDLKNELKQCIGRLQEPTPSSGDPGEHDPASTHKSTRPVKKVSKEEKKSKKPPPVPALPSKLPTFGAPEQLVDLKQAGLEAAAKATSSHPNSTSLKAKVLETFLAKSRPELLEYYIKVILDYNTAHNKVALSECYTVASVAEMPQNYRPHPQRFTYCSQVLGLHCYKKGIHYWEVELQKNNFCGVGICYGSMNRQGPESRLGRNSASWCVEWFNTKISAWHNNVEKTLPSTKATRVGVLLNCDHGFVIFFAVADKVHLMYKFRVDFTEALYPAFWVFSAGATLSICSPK

Target: T1, Flag-RIG-I S144F variant (human) (UniProt O95786)
T1 sequence: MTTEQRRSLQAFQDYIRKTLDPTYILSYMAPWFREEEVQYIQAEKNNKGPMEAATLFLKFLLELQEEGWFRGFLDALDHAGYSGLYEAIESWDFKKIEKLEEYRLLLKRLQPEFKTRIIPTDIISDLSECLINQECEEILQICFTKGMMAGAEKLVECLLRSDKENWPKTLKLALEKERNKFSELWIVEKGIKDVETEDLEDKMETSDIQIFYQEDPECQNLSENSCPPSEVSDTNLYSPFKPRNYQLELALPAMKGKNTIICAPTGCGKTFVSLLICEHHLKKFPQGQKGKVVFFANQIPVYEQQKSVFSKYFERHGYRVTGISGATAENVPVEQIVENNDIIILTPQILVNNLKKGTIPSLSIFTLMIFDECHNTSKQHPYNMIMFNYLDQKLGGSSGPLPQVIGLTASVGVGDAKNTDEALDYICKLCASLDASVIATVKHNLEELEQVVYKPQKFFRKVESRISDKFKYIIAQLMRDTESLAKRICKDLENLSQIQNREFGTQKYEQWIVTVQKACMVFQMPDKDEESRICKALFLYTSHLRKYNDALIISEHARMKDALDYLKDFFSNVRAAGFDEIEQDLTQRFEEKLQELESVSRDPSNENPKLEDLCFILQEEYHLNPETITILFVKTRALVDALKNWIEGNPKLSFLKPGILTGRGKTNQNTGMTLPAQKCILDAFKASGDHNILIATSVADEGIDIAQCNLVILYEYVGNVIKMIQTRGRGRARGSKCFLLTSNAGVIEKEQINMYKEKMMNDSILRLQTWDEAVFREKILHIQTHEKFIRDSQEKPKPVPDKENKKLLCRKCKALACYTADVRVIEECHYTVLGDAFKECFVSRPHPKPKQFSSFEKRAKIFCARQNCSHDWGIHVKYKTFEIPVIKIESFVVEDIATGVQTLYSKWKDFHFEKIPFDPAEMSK
Test: co-IP; HEK293T cells transfected with Flag-RIG-I WT or Flag-RIG-I S144F, followed by intracellular poly(I:C) stimulation; endogenous TRIM25 and TRIM4 examined

**Q.** With “TRIM25 (E3 ligase) (from UniProt Q14258 1-630)” as the substance, how does the binding read?
**A.** Its binding is “binds”.
